Results taken from patent US20150174081A1, “LIQUID PHARMACEUTICAL COMPOSITION COMPRISING NITISINONE” (Swedish Orphan Biovitrum International AB, priority 2011, published 2015).
At least one structure is not confirmed: it was looked up by name or label, or the drawing left a doubt.

Assay: Stability of oxotetrahydroxanthenone solutions, LC-MS
Type: physicochemical
Experimental: The stability study of the main degradation product in Example 6, oxotetrahydroxanthenone, is performed under similar conditions as described in Example 6. Samples of oxotetrahydroxanthenone (OTHX), 81 μg/ml in either citrate buffer pH 3.0 or phosphate buffer pH 6.8, were put on stability at +5° C., +25° C. and +37° C., respectively, for 6 months. The concentrations of OTHX and the secondary degradation products 1,3-cyclohexanedione (CHD) and 4-(trifluoromethyl)salicylic acid (TSA) were analyzed by LC-MS. The results, shown in Table XI, below, are expressed as percent of the initial concentration of OTHX. The mass balance expressed as the total recovery of CHD+OTHX+TSA compared to the initial concentration of OTHX were calculated from MmOTHX/(Mm CHD+MmTSA)×(CHDconc+TSAconc)+OTHXconc expressed in μg/ml where MmOTHX, MmCHD and MmTSA are the molecular masses corresponding to 282, 202 and 206 g/mol, respectively.

O=C1CCCc2oc3cc(C(F)(F)F)ccc3c(=O)c21 [OTHX, 6-(trifluoromethyl)-3,4-dihydro-1H-xanthenene-1,9(2H)-dione]
Mass balance (total recovery of CHD+OTHX+TSA) (Citrate buffer pH 3.0, 5° C., 1.8 months): 96.7% of initial concentration of OTHX | Mass balance (total recovery of CHD+OTHX+TSA) (Citrate buffer pH 3.0, 5° C., 3 months): 96.9% of initial concentration of OTHX | Mass balance (total recovery of CHD+OTHX+TSA) (Citrate buffer pH 3.0, 5° C., 6 months): 91.6% of initial concentration of OTHX | Mass balance (total recovery of CHD+OTHX+TSA) (Citrate buffer pH 3.0, 25° C., 1.8 months): 96.7% of initial concentration of OTHX | Mass balance (total recovery of CHD+OTHX+TSA) (Citrate buffer pH 3.0, 25° C., 3 months): 102.7% of initial concentration of OTHX | Mass balance (total recovery of CHD+OTHX+TSA) (Citrate buffer pH 3.0, 25° C., 6 months): 92.3% of initial concentration of OTHX | Mass balance (total recovery of CHD+OTHX+TSA) (Citrate buffer pH 3.0, 37° C., 1.8 months): 98.1% of initial concentration of OTHX | Mass balance (total recovery of CHD+OTHX+TSA) (Citrate buffer pH 3.0, 37° C., 3 months): 97.7% of initial concentration of OTHX | Mass balance (total recovery of CHD+OTHX+TSA) (Citrate buffer pH 3.0, 37° C., 6 months): 95.3% of initial concentration of OTHX | Mass balance (total recovery of CHD+OTHX+TSA) (Phosphate buffer pH 6.8, 5° C., 1,8 months): 97.9% of initial concentration of OTHX | Mass balance (total recovery of CHD+OTHX+TSA) (Phosphate buffer pH 6.8, 5° C., 3 months): 93.3% of initial concentration of OTHX | Mass balance (total recovery of CHD+OTHX+TSA) (Phosphate buffer pH 6.8, 5° C., 6 months): 83.1% of initial concentration of OTHX | Mass balance (total recovery of CHD+OTHX+TSA) (Phosphate buffer pH 6.8, 25° C., 1,8 months): 93.2% of initial concentration of OTHX | Mass balance (total recovery of CHD+OTHX+TSA) (Phosphate buffer pH 6.8, 25° C., 3 months): 89.8% of initial concentration of OTHX | Mass balance (total recovery of CHD+OTHX+TSA) (Phosphate buffer pH 6.8, 25° C., 6 months): 99.4% of initial concentration of OTHX | Mass balance (total recovery of CHD+OTHX+TSA) (Phosphate buffer pH 6.8, 37° C., 1,8 months): 87.4% of initial concentration of OTHX | Mass balance (total recovery of CHD+OTHX+TSA) (Phosphate buffer pH 6.8, 37° C., 3 months): 76.3% of initial concentration of OTHX | Mass balance (total recovery of CHD+OTHX+TSA) (Phosphate buffer pH 6.8, 37° C., 6 months): 88.5% of initial concentration of OTHX
